Measurements published in the supplement of paper PMC10849652.
The other results are listed elsewhere or left out.

The chains behind the UniProt entries cited, without tags or fusion partners. Where a name states a change or a piece, a line headed by the entry shows the natural chain unless it says otherwise.
UniProt P40763, whole entry, looked up: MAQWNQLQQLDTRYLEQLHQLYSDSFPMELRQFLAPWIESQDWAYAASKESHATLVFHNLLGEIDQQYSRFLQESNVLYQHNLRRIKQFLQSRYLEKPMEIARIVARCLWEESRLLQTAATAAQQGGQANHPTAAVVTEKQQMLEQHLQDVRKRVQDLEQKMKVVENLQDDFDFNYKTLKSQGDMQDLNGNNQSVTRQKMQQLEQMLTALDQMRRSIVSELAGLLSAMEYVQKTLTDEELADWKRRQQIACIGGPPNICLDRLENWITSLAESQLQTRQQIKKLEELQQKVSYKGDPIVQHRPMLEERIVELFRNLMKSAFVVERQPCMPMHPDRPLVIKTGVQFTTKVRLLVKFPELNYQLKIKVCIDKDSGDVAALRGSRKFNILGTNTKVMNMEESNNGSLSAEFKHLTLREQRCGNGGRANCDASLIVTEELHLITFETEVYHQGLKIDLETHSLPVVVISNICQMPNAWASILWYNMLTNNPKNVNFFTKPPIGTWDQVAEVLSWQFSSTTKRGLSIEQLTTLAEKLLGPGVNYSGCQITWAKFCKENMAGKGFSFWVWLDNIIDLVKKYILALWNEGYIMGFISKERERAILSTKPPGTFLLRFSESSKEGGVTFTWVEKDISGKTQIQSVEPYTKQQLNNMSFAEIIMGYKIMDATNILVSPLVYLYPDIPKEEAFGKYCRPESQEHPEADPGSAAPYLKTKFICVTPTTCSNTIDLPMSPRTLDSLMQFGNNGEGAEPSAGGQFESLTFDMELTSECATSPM
UniProt P19623: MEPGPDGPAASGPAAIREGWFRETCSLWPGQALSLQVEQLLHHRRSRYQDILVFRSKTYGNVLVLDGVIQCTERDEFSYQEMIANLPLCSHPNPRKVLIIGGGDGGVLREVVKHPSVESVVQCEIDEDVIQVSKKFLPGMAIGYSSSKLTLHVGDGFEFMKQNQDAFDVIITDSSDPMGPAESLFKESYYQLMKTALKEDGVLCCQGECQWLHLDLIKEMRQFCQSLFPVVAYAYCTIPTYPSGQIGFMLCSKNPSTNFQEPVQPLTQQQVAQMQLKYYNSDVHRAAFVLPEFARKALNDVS
UniProt Q92502: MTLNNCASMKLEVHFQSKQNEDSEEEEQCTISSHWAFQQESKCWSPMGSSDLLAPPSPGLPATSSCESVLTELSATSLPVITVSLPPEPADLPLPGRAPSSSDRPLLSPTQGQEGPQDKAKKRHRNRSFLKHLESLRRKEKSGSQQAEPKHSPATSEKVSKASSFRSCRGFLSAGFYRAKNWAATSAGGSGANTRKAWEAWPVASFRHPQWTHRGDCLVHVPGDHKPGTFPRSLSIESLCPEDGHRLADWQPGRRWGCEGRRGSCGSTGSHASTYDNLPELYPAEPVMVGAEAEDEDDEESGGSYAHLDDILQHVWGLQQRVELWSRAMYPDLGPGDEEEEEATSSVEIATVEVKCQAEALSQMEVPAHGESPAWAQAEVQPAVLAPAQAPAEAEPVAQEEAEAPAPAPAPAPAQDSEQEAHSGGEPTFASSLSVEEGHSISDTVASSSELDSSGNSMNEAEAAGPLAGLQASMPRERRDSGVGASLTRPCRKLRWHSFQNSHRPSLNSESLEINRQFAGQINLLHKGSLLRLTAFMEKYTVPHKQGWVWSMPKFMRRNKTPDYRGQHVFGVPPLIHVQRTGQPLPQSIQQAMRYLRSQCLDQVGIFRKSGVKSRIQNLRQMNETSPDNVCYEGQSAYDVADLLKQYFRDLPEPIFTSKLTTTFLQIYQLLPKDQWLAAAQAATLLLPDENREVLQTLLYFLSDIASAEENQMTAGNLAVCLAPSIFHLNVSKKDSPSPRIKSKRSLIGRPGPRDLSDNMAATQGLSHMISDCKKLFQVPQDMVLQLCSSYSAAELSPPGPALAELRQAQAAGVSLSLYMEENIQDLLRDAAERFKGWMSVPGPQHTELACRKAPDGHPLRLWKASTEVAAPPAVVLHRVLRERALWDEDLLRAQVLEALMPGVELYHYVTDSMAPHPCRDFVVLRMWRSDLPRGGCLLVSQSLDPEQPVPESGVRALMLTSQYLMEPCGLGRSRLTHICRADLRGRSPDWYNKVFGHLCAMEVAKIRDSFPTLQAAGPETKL
UniProt Q13103: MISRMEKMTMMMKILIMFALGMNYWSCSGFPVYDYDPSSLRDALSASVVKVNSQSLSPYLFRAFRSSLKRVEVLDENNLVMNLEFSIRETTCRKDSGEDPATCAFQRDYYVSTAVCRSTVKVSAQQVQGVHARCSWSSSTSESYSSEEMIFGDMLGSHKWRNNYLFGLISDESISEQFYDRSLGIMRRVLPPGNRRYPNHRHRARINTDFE
UniProt Q9H8P0: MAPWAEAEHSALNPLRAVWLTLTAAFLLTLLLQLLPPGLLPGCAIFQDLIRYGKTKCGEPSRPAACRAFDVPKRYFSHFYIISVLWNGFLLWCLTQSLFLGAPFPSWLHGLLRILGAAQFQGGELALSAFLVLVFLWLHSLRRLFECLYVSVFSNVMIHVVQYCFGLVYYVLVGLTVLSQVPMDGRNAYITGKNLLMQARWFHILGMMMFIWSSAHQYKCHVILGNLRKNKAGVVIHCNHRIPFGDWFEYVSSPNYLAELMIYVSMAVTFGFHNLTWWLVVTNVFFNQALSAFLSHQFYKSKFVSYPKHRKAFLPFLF
UniProt O43278: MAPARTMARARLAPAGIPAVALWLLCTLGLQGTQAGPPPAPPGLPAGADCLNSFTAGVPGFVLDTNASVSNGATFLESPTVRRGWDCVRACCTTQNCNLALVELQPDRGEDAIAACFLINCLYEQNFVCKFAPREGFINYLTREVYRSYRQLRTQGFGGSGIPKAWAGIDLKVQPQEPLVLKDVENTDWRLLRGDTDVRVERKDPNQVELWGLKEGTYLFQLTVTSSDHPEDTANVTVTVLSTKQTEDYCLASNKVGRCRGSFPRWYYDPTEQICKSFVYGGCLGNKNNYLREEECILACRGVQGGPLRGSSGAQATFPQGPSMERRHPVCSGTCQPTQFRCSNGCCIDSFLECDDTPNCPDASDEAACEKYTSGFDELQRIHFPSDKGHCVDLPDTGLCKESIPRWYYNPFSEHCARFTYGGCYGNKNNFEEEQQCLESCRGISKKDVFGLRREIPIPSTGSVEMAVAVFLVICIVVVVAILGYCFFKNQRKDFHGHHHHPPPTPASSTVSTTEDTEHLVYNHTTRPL
UniProt Q9P0W8: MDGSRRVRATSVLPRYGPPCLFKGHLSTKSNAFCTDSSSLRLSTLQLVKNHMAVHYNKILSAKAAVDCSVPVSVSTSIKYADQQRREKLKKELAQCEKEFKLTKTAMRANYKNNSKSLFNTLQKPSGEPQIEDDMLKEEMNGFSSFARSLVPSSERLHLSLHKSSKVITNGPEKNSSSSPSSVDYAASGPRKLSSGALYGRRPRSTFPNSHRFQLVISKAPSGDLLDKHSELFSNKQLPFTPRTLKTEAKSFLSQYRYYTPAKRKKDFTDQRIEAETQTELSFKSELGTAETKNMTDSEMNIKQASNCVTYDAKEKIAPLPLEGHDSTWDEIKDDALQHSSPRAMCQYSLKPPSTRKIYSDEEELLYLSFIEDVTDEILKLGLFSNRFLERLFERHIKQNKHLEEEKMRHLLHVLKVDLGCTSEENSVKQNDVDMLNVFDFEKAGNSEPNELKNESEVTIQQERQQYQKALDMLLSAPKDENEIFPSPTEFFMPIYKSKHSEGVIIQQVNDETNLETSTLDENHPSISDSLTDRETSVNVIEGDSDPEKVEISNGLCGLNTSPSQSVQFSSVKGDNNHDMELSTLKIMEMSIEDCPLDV
UniProt O75177, whole entry, looked up: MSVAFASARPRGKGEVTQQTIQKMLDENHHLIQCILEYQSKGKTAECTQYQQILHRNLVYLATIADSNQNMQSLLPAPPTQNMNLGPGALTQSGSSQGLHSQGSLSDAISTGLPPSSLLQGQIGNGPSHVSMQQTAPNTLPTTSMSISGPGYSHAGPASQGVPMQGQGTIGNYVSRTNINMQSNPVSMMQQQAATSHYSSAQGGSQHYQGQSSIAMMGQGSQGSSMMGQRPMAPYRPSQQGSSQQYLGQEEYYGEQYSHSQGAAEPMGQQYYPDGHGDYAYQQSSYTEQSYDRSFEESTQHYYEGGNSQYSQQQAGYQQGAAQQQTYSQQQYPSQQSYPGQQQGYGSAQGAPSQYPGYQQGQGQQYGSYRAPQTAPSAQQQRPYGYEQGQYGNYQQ
UniProt Q16842: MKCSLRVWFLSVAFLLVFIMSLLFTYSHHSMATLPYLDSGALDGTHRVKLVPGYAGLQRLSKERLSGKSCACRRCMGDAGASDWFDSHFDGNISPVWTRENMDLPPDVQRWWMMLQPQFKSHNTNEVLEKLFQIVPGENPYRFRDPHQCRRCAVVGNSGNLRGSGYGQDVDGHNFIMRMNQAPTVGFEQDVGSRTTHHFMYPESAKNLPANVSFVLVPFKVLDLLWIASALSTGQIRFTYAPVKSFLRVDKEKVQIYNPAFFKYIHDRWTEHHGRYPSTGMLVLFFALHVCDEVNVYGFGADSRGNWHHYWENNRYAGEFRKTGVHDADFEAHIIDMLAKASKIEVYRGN
UniProt Q8TCT8: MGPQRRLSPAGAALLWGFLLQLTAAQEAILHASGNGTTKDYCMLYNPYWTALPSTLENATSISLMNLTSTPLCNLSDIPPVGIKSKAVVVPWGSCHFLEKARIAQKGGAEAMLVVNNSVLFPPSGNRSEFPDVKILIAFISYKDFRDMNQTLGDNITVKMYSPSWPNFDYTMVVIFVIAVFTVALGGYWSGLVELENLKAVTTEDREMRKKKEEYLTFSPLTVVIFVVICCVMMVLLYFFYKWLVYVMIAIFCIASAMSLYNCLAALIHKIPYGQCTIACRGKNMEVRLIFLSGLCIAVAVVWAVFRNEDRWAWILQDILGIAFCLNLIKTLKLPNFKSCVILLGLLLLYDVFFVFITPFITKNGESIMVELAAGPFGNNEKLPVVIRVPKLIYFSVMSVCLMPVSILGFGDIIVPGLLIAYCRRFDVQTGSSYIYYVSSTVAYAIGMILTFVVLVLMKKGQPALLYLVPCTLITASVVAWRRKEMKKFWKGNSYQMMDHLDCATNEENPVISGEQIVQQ
UniProt Q13247: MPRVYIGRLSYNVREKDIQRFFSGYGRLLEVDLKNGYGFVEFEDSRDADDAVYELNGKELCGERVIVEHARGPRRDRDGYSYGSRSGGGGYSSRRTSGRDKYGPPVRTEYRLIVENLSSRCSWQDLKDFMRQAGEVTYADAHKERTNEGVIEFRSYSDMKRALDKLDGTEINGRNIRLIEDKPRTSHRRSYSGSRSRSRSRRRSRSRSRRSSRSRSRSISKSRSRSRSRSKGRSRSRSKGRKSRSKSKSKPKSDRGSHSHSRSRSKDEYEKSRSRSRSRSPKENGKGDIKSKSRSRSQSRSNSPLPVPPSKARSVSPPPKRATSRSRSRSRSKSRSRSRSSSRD

What was measured:
Assay in all cases: log2 fold change, soluble protein after heating vs DMSO (PISA); higher = thermal stabilisation; K562 lysate, 10 uM; active = over 0.2 and 3.5 SD of the protein, either way, in both replicates (recomputed)
ibrutinib = compound: C=CC(=O)N1CCC[C@@H](n2nc(-c3ccc(Oc4ccccc4)cc3)c3c(N)ncnc32)C1 [ibrutinib]
Outline: (§1)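 To prepare the extract, K562 pellets were dounce-homogenised in PBS pH 7.4 with 1 mM MgCl2, giving crude material at 1 mg/mL protein. This was treated with 10 μM compound for 30 min, then heated in aliquots for 3 min over 48°C-58°C before pooling and addition of NP-40 to 0.5% at 4°C. Centrifugation at 21,000xg for 90 min left soluble protein in the supernatant, which TMTpro 16plex LC-MS/MS quantified with equalised channel sums. Results are log-two fold changes in thermal stability compared with solvent controls, from duplicates.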

[1] = compound: CC(=O)c1cnc2ccc(-c3cc(Cl)c(O)c(Cl)c3)nc2c1N[C@H]1CC[C@H](CN(C)C)CC1
Outline: as §1

ralimetinib = compound: CC(C)(C)Cn1c(N)nc2ccc(-c3[nH]c(C(C)(C)C)nc3-c3ccc(F)cc3)nc21 [ralimetinib]
Outline: as §1

[2] = compound: CC(C)(O)CC(=O)NCCn1ccc2ncnc(Nc3ccc(Oc4cccc(C(F)(F)F)c4)c(Cl)c3)c21
Outline: as §1

[3] = compound: CC(C)C1=C2N=C(C=C(N2N=C1)NCC3=CC=CC=C3)NCCCCCCN
Outline: as §1

[4] = compound: CC1=C(C(CC(=O)N1)C2=CC=C(C=C2)C(F)(F)F)C(=O)NC3=C(C=C4C(=C3)C=NN4)F
Outline: as §1

[5] = compound: CC1=C(C2=C(C=C1)C(=O)C3=CC=CC=C3N2CCCN)C
Outline: as §1

[6] = compound: CC1=C(C=C(C=C1)NC(=O)C2=CC(=CC=C2)C(C)(C)C#N)NC3=CC4=C(C=C3)N=CN(C4=O)C
Outline: as §1

[7] = compound: CC1=C(C=C(C=C1)NC(=O)C2=CC(=CC=C2)N(C)C)NC(=O)C3=CC=C(C=C3)O
Outline: as §1

[8] = compound: CC1=CC=C(C=C1)SC2=C3C=C(SC3=CN=C2)C(=O)N
Outline: as §1

vemurafenib = compound: CCCS(=O)(=O)Nc1ccc(F)c(C(=O)c2c[nH]c3ncc(-c4ccc(Cl)cc4)cc23)c1F [vemurafenib]
Outline: as §1

[9] = compound: CCCS(=O)(=O)Nc1ccc(F)c(C(=O)c2c[nH]c3ncc(Cl)cc23)c1F
Outline: as §1

barasertib = compound: CCN(CCCOc1ccc2c(Nc3cc(CC(=O)Nc4cccc(F)c4)[nH]n3)ncnc2c1)CCOP(=O)(O)O [barasertib]
Outline: as §1

[10] = compound: CC[C@@H]1C(=O)N(C)c2cnc(Nc3ccc(C(=O)NC4CCN(C)CC4)cc3OC)nc2N1C1CCCC1
Outline: as §1

volasertib = compound: CC[C@@H]1C(=O)N(C)c2cnc(Nc3ccc(C(=O)N[C@H]4CC[C@H](N5CCN(CC6CC6)CC5)CC4)cc3OC)nc2N1C(C)C [volasertib]
Outline: as §1

[11] = compound: CCn1c(C(=O)N(C2CC2)C2CC2)cc2c3c(ncn3C)c(Nc3cc(C)n(C)n3)nc21
Outline: as §1

[12] = compound: CCn1cc(-c2ccnc3[nH]c(-c4cccc(CN(C)C)c4)cc23)c(-c2ccc(NC(=O)N(C)C)cc2)n1
Outline: as §1

[13] = compound: CN1CCC(CNc2ccc3ncc(-c4cccc(OC(F)(F)F)c4)n3n2)CC1
Outline: as §1

saracatinib = compound: CN1CCN(CCOc2cc(OC3CCOCC3)c3c(Nc4c(Cl)ccc5c4OCO5)ncnc3c2)CC1 [saracatinib]
Outline: as §1

sotrastaurin = compound: CN1CCN(c2nc(C3=C(c4c[nH]c5ccccc45)C(=O)NC3=O)c3ccccc3n2)CC1 [sotrastaurin]
Outline: as §1

Measured: log2 fold change

STAT3 isoform 3 (UniProt P40763)
inactive: ibrutinib -0.123 | [1] 0.022 | ralimetinib 0.047 | [2] -0.071 | [3] -0.117 | [4] -0.012 | [5] -0.056 | [6] 0.011 | [7] -0.049 | [8] 0.013 | vemurafenib -0.077 | [9] -0.032 | barasertib -0.049 | [10] -0.004 | volasertib -0.045 | [11] 0.01 | [12] 0.024 | [13] 0.003 | saracatinib 0.004 | sotrastaurin -0.044

SRM (UniProt P19623)
inactive: ibrutinib 0.018 | [1] 0.007 | ralimetinib 0.025 | [2] -0.047 | [3] -0.011 | [4] -0.003 | [5] -0.006 | [6] 0.003 | [7] 0 | [8] -0.011 | vemurafenib -0.004 | [9] -0.003 | barasertib -0.008 | [10] -0.02 | volasertib -0.034 | [11] -0.001 | [12] 0.015 | [13] 0 | saracatinib 0.02 | sotrastaurin 0.011

STARD8 isoform 2 (UniProt Q92502)
inactive: ibrutinib -0.265 | ralimetinib 0.097 | [2] 0.106 | [5] -0.253 | [6] -0.045 | [7] 0.111 | barasertib 0.075 | [10] -0.063 | [11] 0.02 | saracatinib 0.177 | sotrastaurin 0.11

SPATA33 isoform 2 (UniProt Q96N06)
inactive: ibrutinib 0.106 | [1] 0.167 | ralimetinib -0.154 | [2] -0.068 | [4] 0.078 | [5] -0.089 | [7] -0.045 | [8] 0.151 | vemurafenib 0.082 | [9] -0.255 | barasertib 0.015 | [10] 0.022 | volasertib -0.285 | [11] 0.055 | [12] -0.279 | [13] 0.126 | saracatinib 0.163

SPP2 (UniProt Q13103)
inactive: ibrutinib 0.073 | [1] -0.104 | [8] 0.026 | [9] 0.089 | barasertib -0.026 | volasertib -0.087 | [12] -0.09 | [13] 0.098

SRD5A3 (UniProt Q9H8P0)
inactive: ibrutinib -0.109 | [1] 0.147 | ralimetinib -0.164 | [2] -0.277 | [3] 0.027 | [4] 0.022 | [5] 0.045 | [6] -0.31 | [7] 0.053 | [8] 0.042 | vemurafenib -0.034 | [9] 0.011 | barasertib -0.018 | [10] -0.392 | volasertib -0.117 | [11] 0.165 | saracatinib 0.036 | sotrastaurin -0.087

SPINT1 (UniProt O43278)
inactive: ibrutinib -0.012 | [1] 0.026 | [3] -0.05 | [4] 0.014 | [6] -0.054 | [8] -0.031 | [9] 0.028 | barasertib -0.012 | volasertib 0.037 | [12] -0.001 | [13] -0.018 | sotrastaurin 0.129

SPATA7 (UniProt Q9P0W8)
inactive: ibrutinib -0.017 | [1] -0.029 | [3] 0.074 | [4] -0.072 | [8] -0.055 | vemurafenib 0.362 | [9] -0.016 | barasertib 0.122 | [10] 0.288 | volasertib 0.059 | [12] 0.6 | [13] 0.001

SSBP4 (UniProt U3KPY3)
inactive: ibrutinib -0.049 | [4] 0.259 | vemurafenib 0.076 | barasertib -0.078 | [12] 0.064 | [13] 0.08

SS18L1 (UniProt O75177)
inactive: ibrutinib 0.019 | ralimetinib -0.168 | [2] 0.022 | [3] 0.026 | [4] 0.142 | [6] 0.039 | [7] 0.163 | barasertib -0.07 | [11] -0.005 | [12] -0.018 | [13] -0.067 | sotrastaurin -0.028

ST3GAL2 (UniProt Q16842)
inactive: ibrutinib 0.011 | [1] 0.014 | ralimetinib 0.021 | [2] -0.047 | [3] 0.057 | [5] 0.005 | [6] -0.008 | [7] -0.01 | [8] 0.069 | vemurafenib 0.067 | [9] 0.017 | barasertib -0.002 | [10] 0.003 | volasertib 0.012 | [11] -0.01 | [12] -0.081 | [13] 0.014 | saracatinib 0.024 | sotrastaurin 0.056

SPPL2A (UniProt Q8TCT8)
inactive: ibrutinib -0.081 | [1] 0.154 | ralimetinib -0.152 | [2] -0.219 | [3] 0.004 | [6] 0.138 | [7] 0.091 | [8] -0.008 | vemurafenib 0.312 | [9] 0.023 | barasertib 0.077 | [10] -0.016 | volasertib 0.011 | [11] -0.062 | [12] -0.196 | [13] 0.202 | sotrastaurin -0.029

SRSF6 (UniProt Q13247)
inactive: ibrutinib 0.036 | [1] 0.018 | ralimetinib -0.008 | [2] 0.063 | [3] -0.032 | [4] 0 | [5] -0.02 | [6] -0.119 | [7] 0.021 | [8] 0.01 | vemurafenib -0.141 | [9] -0.014 | barasertib 0.015 | [10] -0.021 | volasertib 0.015 | [11] 0.103 | [12] 0.224 | [13] -0.097 | saracatinib 0.021 | sotrastaurin 0.022
